Data as given in PubChem BioAssay AID1259254 (NCATS, 2017).

- Test: 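Finding genes that stop cells copying their DNA twice in one cycle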 (primary screen)
- Cells: human HCT116 colorectal cancer cells
- Reagent: single siRNA against human genes
- Timing: 3 days
- Read-out: 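Imaged Hoechst DNA stain sorts each cell into a cycle phase by DNA amount; per plate, G2 fraction set to 0% for non-targeting and 100% for GMNN siRNA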
- Scale: G2 robust z-score: higher = more G2 cells, more excess DNA replication
- Rule for the call: 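An siRNA counts as active if its G2 robust z-score lies at least 5 MADs above the screen median; here such calls match roughly 38% of GMNN control or more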
The whole screen tested about 59,000 reagents; this is an unselected part. About 1,550 of them (2.6%) were called active. 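G2 share is only a proxy for re-replication; each gene was hit by three separate siRNAs, and active genes were retested.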 A number with no mark means an inactive call. Further read-outs or replicates are left out here. No sequences are given here. The record does not give: the amount of reagent.

For CGN [SID160746192], the entry reads G2 robust z-score -0.307. After knock-down of CGN [SID160746193], the record shows G2 robust z-score -0.447. Against CGN [SID160746194] the deposit lists G2 robust z-score -0.549. Against LHPP [SID160747400] the deposit lists G2 robust z-score 0.858. Silencing of LHPP [SID160747401] gave: G2 robust z-score -1.2. LHPP [SID160747403] gave G2 robust z-score -0.338.

Entries above whose gene name starts with L or l:
LHPP [SID160747400] → G2 robust z-score = 0.858
LHPP [SID160747401] → G2 robust z-score = -1.2
LHPP [SID160747403] → G2 robust z-score = -0.338

Next results:
ARSH [SID160764993] scored G2 robust z-score 1.39. For ARSH [SID160764994] the deposit lists G2 robust z-score -1.19. With knock-down of ARSH [SID160764995], the record shows G2 robust z-score -0.0843. For FMOD [SID160730839] the deposit lists G2 robust z-score 1.89. Knock-down of FMOD [SID160766807] gave: G2 robust z-score 1.81. For FMOD [SID160766826] the deposit lists G2 robust z-score -0.626.
